Values of other authors as cited in patent US6852760B1, “Compositions and methods for treatment for glucose metabolism disorders” (Akesis Pharmaceuticals, Inc., priority 1998, dated 2005).
Read-outs that look alike come from different tables or passages of the source. For part of these data: For at least one compound, name, drawing or mass did not settle the structure. Some of these results come from one statement about several compounds together.

Tests used:
[1] = tested on: prostacyclin production; details: cited from earlier work
[2] = NIDDM on exogenous insulin, cited from earlier work
[3] = 400 mg; obese patients; cited from earlier work
[4] = 600 mg; women with IGT; cited from earlier work
[5] = 400 and 600 mg; hyperinsulinemic euglycemic clamp; cited from earlier work

In the case of `CC(=O)Oc1ccccc1C(=O)O` [Aspirin, acetyl salicylic acid], the “duration of inhibition of prostacyclin production” value [1] is given as 3 to 4 h.
For `CN1C(C(=O)Nc2ccccn2)=C(O)c2ccccc2S1(=O)=O` [piroxicam], the “duration of inhibition of prostacyclin production” value [1] is listed as 72 to 96 h.
For `Cc1c(C)c2c(c(C)c1O)CCC(C)(COc1ccc(CC3SC(=O)NC3=O)cc1)O2` (stereo not drawn) [troglitazone], the “fall of mean HbA1c” value ([2]; 200 mg) is given as 0.8%, the “fall of mean HbA1c” value ([2]; 600 mg) is given as 1.4% and the “reduction of insulin requirements” value [2] is given as “up to 29%”. For the same compound, the glucose disposal rates [3] was “increased glucose disposal rates”, the glucose tolerance [4] was “unchanged” and the insulin homeostasis [4] was “improved insulin homeostasis”. For the same compound, the “glucose disposal above pretreatment levels” value [5] was “approximately 45%”.
